Laboratory results published in paper PMC9177958.
Construct, isoform or probe ends are uncertain for at least one entry. At least one verdict was read from the data and is not stated in words by the source.

Tested on: UPF3B-WT + UPF2L
Assay: EMSA
Conditions: 2 mM MgCl2, UPF2L dissolves UPF3B-RNA oligomers, defined-stoichiometry complex; EMSA: 250 nM probe, 25 mM HEPES pH 7.45, 2 mM MgCl2, 150 mM NaCl, 0.5 mM TCEP, on ice; recombinant protein; protein details: 6xHis removed by TEV,6xHis removed by TEV; label: 5' HEX

Question: Does CACUGAUCUGACGCUGCACCUGGG [24mer ssRNA] bind?
Answer: binds
